The test system of the experiment is E. coli strain BMH71-18. Briefly: Bactericidal activity, broth microdilution assay (OD600). The class given is cell-based. The settings on record: Escherichia coli, BMH7118; positive control, 18 h. On the procedure:
Ampicillin (0-20 μg/ml), chicken NK-lysin peptides (0-40 μg/ml), or LB broth alone were added to cultures of the bacteria and incubated for 18 h at […]. Bacterial growth was determined by measuring OD600. X axis: Ampicillin concentrations.
To evaluate the bactericidal activity of NK-lysin peptides, the minimum inhibitory concentration (MIC) values of the purified recombinant protein against E. coil strain BMH71-18 were determined using a standardized broth microdilution assay. Ampicillin MIC values against the bacteria were determined in parallel as positive controls. The assays were performed in accordance with Clinical and Laboratory Standards Institute (CLSI; Formerly National Committee for Clinical Laboratory Standards [NCCLS]) guidelines (NCCLS. 1999. In: Methods for Determining Bacterial Activity of Antimicrobial Agents, NCCLC, Wayne, Pa.; NCCLS. 2002. In: Performance Standards for Antimicrobial Disk and Dilution Susceptibility Tests for Bacteria isolated from Animals; Approved Standard, 2nd ed. NCCLS, Wayne, Pa.). […] The wells were incubated for 18 h at 37° C. with ambient air circulation and without shaking, and the optical density (OD) of each well was measured on a Synergy HT™ multi-modal plate reader (Bio-Tec Instruments, Winooski, Vt.) at 600 nm. Background values, derived from non-inoculated wells containing broth alone, were subtracted from all readings.
In general terms: Broth dilution looks for growth in wells or tubes with falling amounts of substance.

The results in this text go back to US8691943B2, “Antimicrobial activity of chicken NK-2 peptide against apicomplexan protozoa” (priority 2011, dated 2014).

Regarding `CC1(C)S[C@@H]2[C@H](NC(=O)[C@H](N)c3ccccc3)C(=O)N2[C@H]1C(=O)O` [ampicillin, reference compound], the MIC (commonly the smallest concentration in the dilution series that meets the test's criterion for growth inhibition) was in the range of 5 to 10 µg/mL.
